Data as given in PubChem BioAssay AID1259425 (University of Nebraska Medical Center, 2018)

- Screen: 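Find knockdowns that reproduce the gene expression pattern seen when KSR1 is lost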 (primary screen)
- Cell system: HCT116 human colon cancer cells
- Knock-down reagent: siRNA pool against human genes, 50 nM siRNA
- Measured: 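After 50 nM siRNA pool, branched-DNA assay measures six marker transcripts per well, minus blank, normalised to the geometric mean of two housekeeping transcripts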
- Direction: BNIP3L mRNA: higher = more BNIP3L transcript after knockdown; NDRG1 mRNA: higher = more NDRG1 transcript after knockdown
The deposit covers about 14,000 reagents; below is a part drawn at random. A reagent listed more than once was tested more than once; the source does not tell the runs apart. Further read-outs or replicates are left out here. Reagent sequences are not shown. Not stated in the record: the time to read-out.

target gene | BNIP3L mRNA, set 1 | NDRG1 mRNA, set 1
CCNC (GeneID 892) | 0.104 | 0.108
C5orf22 (GeneID 55322) | 0.0959 | 0.345
PSMA3 (GeneID 5684) | 0.709 | 2.38
VIPR2 (GeneID 7434) | 0.186 | 0.532
SYNPO (GeneID 11346) | 0.151 | 0.216
ACSM3 (GeneID 6296) | 0.175 | 0.23
SYNGR3 (GeneID 9143) | 0.206 | 0.36
CCL19 (GeneID 6363) | 0.061 | 0.0889
TBC1D25 (GeneID 4943) | 0.186 | 0.153
UGT1A7 (GeneID 54577) | 0.0825 | 0.183
ARMC5 (GeneID 79798) | 0.152 | 0.763
BTN3A2 (GeneID 11118) | 0.118 | 0.171
GATA2 (GeneID 2624) | 0.111 | 0.18
CEP89 (GeneID 84902) | 0.225 | 0.285
DSE (GeneID 29940) | 0.148 | 0.137
GPATCH8 (GeneID 23131) | 0.136 | 0.155
GLTP (GeneID 51228) | 0.0509 | 0.0861
ANKH (GeneID 56172) | 0.0279 | 0.248
PLA1A (GeneID 51365) | 0.115 | 0.206
TAS2R38 (GeneID 5726) | 0.0441 | 0.0895
SH3KBP1 (GeneID 30011) | 0.2 | 0.496
NR4A1 (GeneID 3164) | 0.146 | 0.379
UGT8 (GeneID 7368) | 0.0826 | 0.123
SLC25A17 (GeneID 10478) | 0.124 | 0.261
KRT1 (GeneID 3848) | 0.113 | 0.327
ORM2 (GeneID 5005) | 0.202 | 0.571
POMT1 (GeneID 10585) | 0.181 | 0.348

Continued; the last 7 above are carried over.
target gene | BNIP3L mRNA, set 1 | NDRG1 mRNA, set 1
SH3KBP1 (GeneID 30011) | 0.2 | 0.496
NR4A1 (GeneID 3164) | 0.146 | 0.379
UGT8 (GeneID 7368) | 0.0826 | 0.123
SLC25A17 (GeneID 10478) | 0.124 | 0.261
KRT1 (GeneID 3848) | 0.113 | 0.327
ORM2 (GeneID 5005) | 0.202 | 0.571
POMT1 (GeneID 10585) | 0.181 | 0.348
TRPV4 (GeneID 59341) | 0.0533 | 0.229
TRIP11 (GeneID 9321) | 0.112 | 0.0678
TULP1 (GeneID 7287) | 0.149 | 0.299
RAB2A (GeneID 5862) | 0.133 | 0.25
KLHL26 (GeneID 55295) | 0.176 | 0.125
THSD7A (GeneID 221981) | 0.0843 | 0.481
EGFL7 (GeneID 51162) | 0.127 | 0.281
RPS6KB1 (GeneID 6198) | 0.248 | 0.036
SERPINA6 (GeneID 866) | 0.0918 | 0.116
GNGT1 (GeneID 2792) | 0.0709 | 0.202
CORO6 (GeneID 84940) | 0.19 | 0.194
CRNN (GeneID 49860) | 0.16 | 0.17
GNG10 (GeneID 2790) | 0.0611 | 0.0868
NIP7 (GeneID 51388) | 0.174 | 0.298
PLXNB1 (GeneID 5364) | 0.0916 | 0.337
ARPC2 (GeneID 10109) | 0.0465 | 0.242
ZNF516 (GeneID 9658) | 0.101 | 0.107
ZNF516 (GeneID 9658) | 0.114 | 0.0921
ZNF516 (GeneID 9658) | 0.122 | 0.114
MC5R (GeneID 4161) | 0.142 | 0.515
DDC (GeneID 1644) | 0.0459 | 0.0866
SAP30 (GeneID 8819) | 0.0225 | 0.0946
NANOG (GeneID 79923) | 0.342 | 0.108
